In the supplement of paper PMC8975748:
Where a name gives a salt, the structure may show the parent alone. ± gives the standard deviation of the averaged measurements. The list shows a part of the results. These are raw signals, not scaled to a control.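 The yeast community starts from one strain carrying four plasmids, each with an amino-acid or uracil synthesis gene and a fluorescent protein. Random plasmid loss creates mixed prototroph and auxotroph subpopulations. Cells were fixed and counted by automated confocal fluorescence imaging, and DMSO-treated wells served as the vehicle reference.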 Numbered stars: 1 amine (or outer) side, 2 acyl side, 3 side chain; on linkers, the order of the positions; unused ones are H or OH. Bridge positions count the residues as written; N and C are the ends. Square brackets hold non-standard residues; d marks the D form. Peptide text beside a SMILES is read from it. * marks the point of attachment. pTerphenylCO(4''-OnC5H11) = CCCCCOc1ccc(-c2ccc(-c3ccc(C(=O)*)cc3)cc2)cc1; Orn(4R-OH,5R-OH) = O=C([C@H](C[C@@H](O)[C@@H](O)N[*:3])N[*:1])[*:2]; hTyr(3S-OH,4S-OH) = N[C@H](C(=O)O)[C@H](O)[C@@H](O)c1ccc(O)cc1; Pro(3S-OH,4S-Me) = C[C@H]1CN[C@H](C(=O)O)[C@H]1O; Hyp = O=C(O)[C@@H]1C[C@@H](O)CN1

test system: Saccharomyces cerevisiae BY4741 SeMeCo community; test: imaged cell count per well (cells); higher = more cells; conditions: 10 µM; 24 h; SM minimal medium
Experimental: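 Same SeMeCo high-content imaging drug screen: Selleck FDA-approved drugs at 10 µM, 24 h in SM medium, 384-well plates, 3 replicates.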

Point of comparison: `CC(C)(C)C(=O)OCOC(=O)[C@@H]1N2C(=O)[C@@H](/N=C/N3CCCCCC3)[C@H]2SC1(C)C` [Pivmecillinam hydrochloride], “imaged cell count per well” value 21900 ± 6400. Against it:
- C=CC[C@@H]1/C=C(\C)C[C@H](C)C[C@H](OC)[C@H]2O[C@@](O)(C(=O)C(=O)N3CCCC[C@H]3C(=O)O[C@H](/C(C)=C/[C@@H]3CC[C@@H](O)[C@H](OC)C3)[C@H](C)[C@@H](O)CC1=O)[C@H](C)C[C@@H]2OC [Tacrolimus (FK506)] — within error, 23400 ± 4900
- C#CCN(C)Cc1ccccc1 [Pargyline hydrochloride] — within error, 19800 ± 5800
- Cc1c[nH]c(=O)[nH]c1=O [Thymine] — within error, 18100 ± 6000
- COC(=O)C1=C(C)NC(C)=C(C(=O)OC(C)(C)CN(C)CCC(c2ccccc2)c2ccccc2)C1c1cccc([N+](=O)[O-])c1 (stereo not given) [Lercanidipine] — within error, 23800 ± 4800
- O=C(O)c1cc(O)c2c(c1)[C@H]([C@H]1c3cc(C(=O)O)cc(O)c3C(=O)c3c(O[C@@H]4O[C@H](CO)[C@@H](O)[C@H](O)[C@H]4O)cccc31)c1cccc(O[C@@H]3O[C@H](CO)[C@@H](O)[C@H](O)[C@H]3O)c1C2=O [Sennoside A] — within error, 26500 ± 3800
- CCn1cc(C(=O)O)c(=O)c2cc(F)c(N3CCNCC3)nc21 [Enoxacin] — within error, 25400 ± 4600
- Nc1c(Br)cc(Br)cc1CN[C@H]1CC[C@H](O)CC1 [Ambroxol HCl] — within error, 30800 ± 9400
- Cc1cc(-n2c(=O)[nH]c(=O)n(C)c2=O)ccc1Oc1ccc(SC(F)(F)F)cc1 [Toltrazuril] — within error, 22900 ± 4600
- CCC(C)n1ncn(-c2ccc(N3CCN(c4ccc(OCC5COC(Cn6cncn6)(c6ccc(Cl)cc6Cl)O5)cc4)CC3)cc2)c1=O (stereo not given) [Itraconazole] — lower, 6670 ± 1700
- Cc1ccc(S(=O)(=O)NC(=O)NN2CC3CCCC3C2)cc1 (stereo not given) [Gliclazide] — within error, 20300 ± 3300
- CC[C@H](C)C(=O)O[C@H]1C[C@@H](C)C=C2C=C[C@H](C)[C@H](CC[C@@H]3C[C@@H](O)CC(=O)O3)[C@H]21 [Lovastatin] — within error, 23200 ± 2200
- CSc1nc2cc(Cl)c(Oc3cccc(Cl)c3Cl)cc2[nH]1 [Triclabendazole] — lower, 4930 ± 750
- CCc1c(C)[nH]c2c1C(=O)C(CN1CCOCC1)CC2 (stereo not given) [Molindone hydrochloride] — within error, 27100 ± 6200
- CCCN1CCCC[C@H]1C(=O)Nc1c(C)cccc1C [Ropivacaine] — within error, 27300 ± 2600
- CCCCCOc1ccc(-c2ccc(-c3ccc(C(=O)N[C@H]4C[C@@H](O)[C@@H](O)NC(=O)[C@@H]5[C@@H](O)[C@@H](C)CN5C(=O)[C@H]([C@@H](C)O)NC(=O)[C@H]([C@H](O)[C@@H](O)c5ccc(O)cc5)NC(=O)[C@@H]5C[C@@H](O)CN5C(=O)[C@H]([C@@H](C)O)NC4=O)cc3)cc2)cc1 ({pTerphenylCO(4''-OnC5H11)}-[Orn(4R-OH,5R-OH)]T[Hyp][hTyr(3S-OH,4S-OH)]T[Pro(3S-OH,4S-Me)]; lactam 1-C) — lower, 2340 ± 1000
- CCC1=C(C)CN(C(=O)NCCc2ccc(S(=O)(=O)NC(=O)N[C@H]3CC[C@H](C)CC3)cc2)C1=O [Glimepiride] — within error, 23200 ± 3600
- CC(C)(O/N=C(\C(=O)N[C@@H]1C(=O)N2C(C(=O)[O-])=C(C[n+]3ccccc3)CS[C@H]12)c1csc(N)n1)C(=O)O [Ceftazidime] — within error, 28100 ± 5600
- O=C(Nc1c(Cl)cncc1Cl)c1ccc(OC(F)F)c(OCC2CC2)c1 [Roflumilast] — within error, 24300 ± 4700
- CC[N+](C)(C)c1cccc(O)c1 [Edrophonium chloride] — within error, 24600 ± 1600
- CCCCCCCCCCCCCCCC[N+](C)(C)C [Cetrimonium Bromide (CTAB)] — lower, 1270 ± 390
- Clc1ccc(CCC(Cn2ccnc2)Sc2c(Cl)cccc2Cl)cc1 (stereo not given) [Butoconazole] — lower, 3100 ± 630
- O=C1CN(/N=C/c2ccc([N+](=O)[O-])o2)C(=O)N1 [Nitrofurantoin] — within error, 22500 ± 2500
- C(=C\c1ccccc1)/CN1CCN(C(c2ccccc2)c2ccccc2)CC1 [Cinnarizine] — within error, 26000 ± 3300
- COc1cc(N)c(Cl)cc1C(=O)NC1CCN(CCCOc2ccc(F)cc2)CC1OC (stereo not given) [Cisapride hydrate] — within error, 20900 ± 5600
- Cc1ncc([N+](=O)[O-])n1CCOC(=O)c1ccccc1 [Metronidazole Benzoate] — within error, 26200 ± 3000
- Nc1nc(N)c2nc(-c3ccccc3)c(N)nc2n1 [Triamterene] — within error, 26400 ± 5000
- CCOC(=O)OC(C)OC1=C(C(=O)Nc2ccccn2)N(C)S(=O)(=O)c2ccccc21 (stereo not given) [Ampiroxicam] — within error, 31800 ± 8900
- CCC(=O)c1c(O)cc(O)cc1O [Flopropione] — within error, 19900 ± 9400
- NS(=O)(=O)Cc1noc2ccccc12 [Zonisamide] — within error, 21100 ± 7800
- COC(=O)Nc1nc2cc(C(=O)c3ccc(F)cc3)ccc2[nH]1 [Flubendazole] — within error, 26500 ± 610
- COc1ccc2cc3[n+](cc2c1OC)CCc1cc2c(cc1-3)OCO2 [Berberine chloride] — within error, 20800 ± 840
- O=C(Nc1ccc(Oc2ccc(Cl)cc2)c(Cl)c1)c1cc(I)cc(I)c1O [Rafoxanide] — within error, 30800 ± 2500
- Nc1nc2[nH]cc(CCc3ccc(C(=O)N[C@@H](CCC(=O)O)C(=O)O)cc3)c2c(=O)[nH]1 [Pemetrexed Disodium Hydrate] — lower, 8660 ± 3500
- Nc1nc(N)nc(-c2cc(Cl)ccc2Cl)n1 [Irsogladine] — within error, 27400 ± 3700
- Cc1cc(C)nc(NS(=O)(=O)c2ccc(N)cc2)n1 [Sulfamethazine Sodium Salt] — within error, 24400 ± 1300
- CO/N=C(\C(=O)N[C@@H]1C(=O)N2C(C(=O)O)=C(CSc3nc(=O)c(O)nn3C)CS[C@H]12)c1csc(N)n1 [Ceftriaxone Sodium Trihydrate] — within error, 23500 ± 3600
- CN(C)CCc1c[nH]c2ccc(Cn3cncn3)cc12 [Rizatriptan Benzoate] — within error, 17000 ± 7000
- Cc1ccc(-c2cc(C(F)(F)F)nn2-c2ccc(S(N)(=O)=O)cc2)cc1 [Celecoxib] — within error, 23200 ± 1600
- CN1CCN(c2c(F)cc3c(=O)c(C(=O)O)cn4c3c2OCN4C)CC1 [Marbofloxacin] — within error, 31200 ± 5700
